Results are given in words; binding and its absence hold for the method and conditions named. In cells and extracts the contact can be indirect. Some binding calls cover weakened binding; strength is not graded here.
Target: PRMT5 (Protein arginine methyltransferase 5) (human (endogenous in A549)) (UniProt O14744)
Assay: co-IP; A549 cell lysates, endogenous proteins; protein A-agarose beads with SHARPIN or PRMT5 rabbit antibody, 4°C overnight, no-antibody (NA) control; western blot

The chains behind the UniProt entries cited, without tags or fusion partners.
UniProt O14744: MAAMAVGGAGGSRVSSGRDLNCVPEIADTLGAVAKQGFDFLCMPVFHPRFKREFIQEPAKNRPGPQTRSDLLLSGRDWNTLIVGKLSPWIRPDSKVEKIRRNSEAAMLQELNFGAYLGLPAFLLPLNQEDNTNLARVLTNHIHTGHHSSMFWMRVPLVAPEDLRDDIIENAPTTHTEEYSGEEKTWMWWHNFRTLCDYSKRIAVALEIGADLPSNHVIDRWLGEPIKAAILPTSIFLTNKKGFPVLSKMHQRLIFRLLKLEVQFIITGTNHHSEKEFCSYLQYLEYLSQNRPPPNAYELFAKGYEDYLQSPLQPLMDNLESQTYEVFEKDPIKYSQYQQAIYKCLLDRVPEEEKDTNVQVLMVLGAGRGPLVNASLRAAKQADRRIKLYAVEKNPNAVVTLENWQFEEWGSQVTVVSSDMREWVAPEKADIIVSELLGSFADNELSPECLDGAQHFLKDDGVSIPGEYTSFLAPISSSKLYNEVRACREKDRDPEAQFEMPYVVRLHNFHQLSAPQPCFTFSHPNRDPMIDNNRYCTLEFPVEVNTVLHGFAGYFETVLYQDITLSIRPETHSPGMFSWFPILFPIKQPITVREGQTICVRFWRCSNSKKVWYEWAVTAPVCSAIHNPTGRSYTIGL

binding: binds
B1: SHARPIN (Shank-associated RH domain interacting protein) (protein, UniProt Q9H0F6 1-387)
chain: MAPPAGGAAAAASDLGSAAVLLAVHAAVRPLGAGPDAEAQLRRLQLSADPERPGRFRLELLGAGPGAVNLEWPLESVSYTIRGPTQHELQPPPGGPGTLSLHFLNPQEAQRWAVLVRGATVEGQNGSKSNSPPALGPEACPVSLPSPPEASTLKGPPPEADLPRSPGNLTEREELAGSLARAIAGGDEKGAAQVAAVLAQHRVALSVQLQEACFPPGPIRLQVTLEDAASAASAASSAHVALQVHPHCTVAALQEQVFSELGFPPAVQRWVIGRCLCVPERSLASYGVRQDGDPAFLYLLSAPREAPATGPSPQHPQKMDGELGRLFPPSLGLPPGPQPAASSLPSPLQPSWSCPSCTFINAPDRPGCEMCSTQRPCTWDPLAAAST

— article PMC5589623
